According to patent US7713943B2, “Further use of protein kinase N beta” (Silence Therapeutics Aktiengesellschaft (AG), priority 2002, dated 2010):
For at least one compound, name, drawing or mass did not settle the structure.

Experiments:
PC3 cells [1] = assay: Lymph node metastasis in orthotopic PC-3 mouse model, established tumor model; assay type: in vivo, mice; settings: oral treatment days 29 to 50, doses 2 mg/kg and 0.4 mg/kg
PC3 cells [2] = assay: Lymph node metastasis in orthotopic PC-3 mouse model, tumor take model; assay type: in vivo, mice; settings: compared to PBS

Structure (SMILES): CO[C@H]1C[C@@H]2CC[C@@H](C)[C@@](O)(O2)C(=O)C(=O)N2CCCC[C@H]2C(=O)O[C@H]([C@H](C)C[C@@H]2CC[C@@H](O)[C@H](OC)C2)CC(=O)[C@H](C)/C=C(\C)[C@@H](O)[C@@H](OC)C(=O)[C@H](C)C[C@H](C)/C=C/C=C/C=C/1C [Rapamune, rapamycin]
- total lymph node metastasis (PC3 cells [1]): same results
- extent of lymphnode metastasis, measured volume of metastasis (PC3 cells [2]; Rapamune intraperitoneally daily for 28 days from day 1, 0.4 mg/kg/dose): tremendous decrease
- extent of lymphnode metastasis, measured volume of metastasis (PC3 cells [2]; Rapamune intraperitoneally daily for 28 days from day 1, 2 mg/kg/dose): tremendous decrease
